Source: paper PMC10163288
The list shows a part of the results.

B1: il10ra_site1_normal_mot_HHH_b1_02397_af2_000000085_0001_39_57_H_._HHH_b2_00311_0001_0000300020_0000002_0 (protein)
chain: SSSSSSDLEELLEELEQLLEEGDHERFAEVALRILRHAFRKNDPEVLRAVWELVKRLASSSSSSS
B2: il10ra_site1_sap_18_mot_HHH_b1_07768_000000240_0001_18_35_H_._HHH_b1_02264_0001_0000100004_0000001_0_0001 (protein)
chain: SSSSSERAIRFHLDMARQAFRLNNREALKAATYAARALVELHKDPELERLLEEIEELLEELSSSS
B3: il10ra_site1_normal_mot_HHH_b2_02337_000000026_0001_38_52_H_._HHH_b2_06191_0001_0000100004_0000002_0 (protein)
chain: SSSSSEEELEELVRELEELVERNDIERFIRLAQEAVQLAMELGDQEVLQRLWELVRLIIGSSSSS
B4: il10ra_site1_sap_13_mot_HHH_b2_06076_000000146_0001_21_37_H_._HHH_b2_03555_af2_0001_0000100003_0000001_0_0001 (protein)
chain: SSSSSERRERIWKLIKEVLELLANGNPEEAEKVLEEAEELAEEANDRLLLIQIEFLARAVKSSSS
B5: il10ra_site1_normal_mot_HHH_b2_02386_000000054_0001_1_20_H_._HHH_b2_05043_0001_0000400073_0000003_0 (protein)
chain: SSSSTDESYELLREAIEEVIRLYKEGNPEEAEKVVEEVARRLEELGNPLAARQLENLLRLLSSSS
B6: il10ra_site1_normal_mot_HHH_b2_07145_000000158_0001_24_40_H_._HHH_b1_07887_0001_0000300041_0000001_0 (protein)
chain: SSSSTEELFEKVKELIKEAQELFENGNPEEARELLRELREELEELGNQALLWSVEHLLRLLSSSS
B7: il10ra_site1_sap_24_mot_ems_p1-16H-GBL-16H-GABBL-16H_0429_0001_0001_0001_000000085_0001_1_17_H_._HHH_b2_03668_0001_0000200022_0000001_0_0001 (protein)
chain: SSSSSEEVEELLKELEEALEEGDEELFAELYAQVARLAQRLNDRELIEKIQKLAIEFLRRKSSSS
B8: il10ra_site1_normal_mot_HHH_b2_02386_000000054_0001_1_20_H_._HHH_b2_05043_0001_0000100001_0000003_0 (protein)
chain: SSSSTDESYELARRAIEEVIRLYKEGNPEEAEEVVREVFRELKELGNPLAARQLENLRRILSSSS
B9: il10ra_site1_sap_21_mot_HHH_b2_02736_000000092_0001_22_38_H_._HHH_b1_04523_af2_0001_0000300039_0000001_0_0001 (protein)
chain: SSSSSEEKEEELEELERLIEEGDRERFMKLVERALRLAYQNGDKELLQKIWELVKEFGERLSSSS
B10: il10ra_site1_sap_12_mot_HHH_b1_05757_000000171_0001_42_57_H_._ead7110553fcc56fee53bdb6698f5c61_0001_af2_0001_0000200005_0000002_0_0001 (protein)
chain: SSSSSDEELEEEIRELLRELEQITDPKEFIEVALRALELIYRLQDPELLHELWRIIKENSSSSSS
B11: il10ra_site1_normal_mot_513c16ae44941e68898e0f7c259e5a28_0001_1_000000056_0001_35_50_H_._ems_p1-15H-GBL-16H-GABBL-16H_0398_0001_0001_0002_0001_0000400018_000000 … (protein)
chain: SSSSSDVEELVELVEELAEERGDEQALQLAEAIEQLFRQGVLSEEAARIALEALAELLEGSSSSS
B12: il10ra_site1_normal_mot_HHH_b2_02022_000000155_0001_19_35_H_._HHH_b2_06257_0001_0000300026_0000001_0 (protein)
chain: SSSSSDTEELLRRLEEEVEELIEEGDQQKAIELLYEISRLAEEKDDEEAREVALRLSRLLSSSSS
B13: il10ra_site1_normal_mot_HHH_b1_07527_000000076_0001_1_15_H_._HHH_b1_08385_0001_0000300038_0000001_0 (protein)
chain: SSSSNEEADEVYKLIREIMELLREGDHERAEELLERAKEIAEEAGSPLLLIILRLLERELKSSSS
B14: il10ra_site1_normal_mot_HHH_b1_05185_000000011_0001_22_39_H_._HHH_b1_06411_0001_0000300023_0000002_0 (protein)
chain: SSSSDVERYIKLAIRFAEALAEAGNPEAARRLIRIAIQIARREGNPELVRELEELLEQLEGSSSS
B15: il10ra_site1_normal_mot_HHH_b2_07006_000000108_0001_1_19_H_._HHH_b2_06449_0001_0000300027_0000001_0 (protein)
chain: SSSSTDEIYELLRELIEAIQDGDEERAEHLVEEIRRLIEEAGSPVMEHLLRFLEELLERRGSSSS
B16: il10ra_site1_sap_20_mot_HHH_b2_02337_000000026_0001_38_52_H_._HHH_b2_02238_af2_0001_0000100004_0000001_0_0001 (protein)
chain: SSSSSEHQELYELIRELIELVAEGDREEFEELYEEVEKLAEELNSWVARMILKYLREQVESSSSS
B17: il10ra_site1_normal_mot_HHH_b1_01827_000000263_0001_1_19_H_._HHH_b2_03023_0001_0000500031_0000001_0_af2pred_0001 (protein)
chain: SSSSTDENEEVIKLLREAAHIEDEEEARRVLEEAFEVAEEGGNELARLAVEFLLRILEEQSSSSS
B18: il10ra_site1_normal_mot_7f9b3cf633cfd27bca007b62ade1be3b_0001_1_000000138_0001_17_32_H_._HHH_b1_05277_0001_0000200014_0000001_1 (protein)
chain: SSSSSSSTERALRFLIFALERAETEEQRRAALRFLEHLAKYLNDEEAEEVVEEFKERHSSSSSSS
B19: il10ra_site1_normal_mot_HHH_b2_03220_af2_000000223_0001_23_40_H_._HHH_b1_00340_af2_0001_0000100002_0000001_0 (protein)
chain: SSSSDETTERAWELIREALELLANGDKEEAEEVLREAEELAEEGNSFAFERAIRLVLRDASSSSS
B20: il10ra_site1_normal_mot_HHH_b1_05357_000000034_0001_23_39_H_._HHH_b2_05979_0002_0000600053_0000001_0 (protein)
chain: SSSSSEFEELREEIERALEENDEELVKELLLELAAVAARLRDPELTHEVIQLYARVHEYFSSSSS
B21: il10ra_site1_normal_mot_HHH_b2_00033_000000036_0001_41_54_H_._HHH_b2_06760_af2_0001_0000200011_0000001_0 (protein)
chain: SSSSDEEKEELERLIEELRELLENGDPERAAKVAMRALQLAFRLRDPELFQELWEVFKRHFSSSS
B22: il10ra_site1_sap_18_mot_HHH_b2_06497_000000202_0001_1_20_H_._HHH_b1_07903_0001_0000400029_0000001_0_0001 (protein)
chain: SSSSDEEDEELLRLVLEAFRLALRGNEEEARRVLEEAEELAEKLNNEKVLKMVRDLLKALSSSSS
B23: il10ra_site1_normal_mot_HHH_b2_08144_af2_000000046_0001_38_52_H_._HHH_b1_00453_af2_0001_0000100003_0000001_0 (protein)
chain: SSSSSELVREAYEALRRLAELAHEGDEEEFQELYEEARRLAEEANNPLLAFQVEFLFRRFTSSSS
B24: il10ra_site1_normal_mot_HHH_b2_02053_af2_000000006_0001_3_19_H_._HHH_b1_07461_0001_0000100009_0000001_0_af2pred_0001 (protein)
chain: SSSSSASEEVRKLLREALELLDKGNPEEAEELVEEAVRIAEENNNPVLLFVAEFLLKDIRGSSSS
B25: il10ra_site1_normal_mot_9368472692dc9678e81f248f6367350b_0001_000000260_0001_20_35_H_._HHH_b1_06755_0001_0000100002_0000002_0 (protein)
chain: SSSSDEEEHRLLELSQHALRAALRGDEEEARRLLEEAIELAEELGNERALRVLEELLKAHSSSSS
B26: il10ra_site1_normal_mot_HHH_b1_05357_000000034_0001_23_39_H_._HHH_b2_02016_0001_0000400030_0000001_0_af2pred_0001 (protein)
chain: SSSSDTEEEVRELLERAEEAAKRGDREETAFLLLRAFSLAAEARNEELKREIEKVAQELSSSSSS
B27: il10ra_site1_sap_20_mot_HHH_b1_05056_000000217_0001_1_20_H_._HHH_b2_06181_0001_0000600016_0000002_0_0001_af2pred_0001 (protein)
chain: SSSSDEEEYEEKVEELLEEAKHIPDPRERAYVLTRAFALATQVNDPELEELVRRVAQELISSSSS
B28: il10ra_site1_normal_mot_HHH_b2_05323_000000159_0001_1_18_H_._HHH_b1_04617_af2_0001_0000100018_0000002_0 (protein)
chain: SSSSDNEEALRLSQRAFRAALRGNPEEARELLEEARELAEQAGNERLVRAIESLLKSLELGSSSS
B29: il10ra_site1_sap_26_mot_HHH_b2_04001_000000102_0001_19_36_H_._HHH_b2_00096_0001_0000100005_0000001_0_0001 (protein)
chain: SSSSDEEERIIEQALELAEERGDRETFLQLRVALELARLSNNPRVLESLAKYAEEVLEELNSSSS
B30: il10ra_site1_normal_mot_HHH_b2_00033_000000036_0001_41_54_H_._HHH_b1_08598_0001_0000300016_0000002_0 (protein)
chain: SSSSSSSDFQELALRALRLLIKRNDKELFQELWRLVKEIAEHGDPELREELEEFLEEISSSSSSS
B31: il10ra_site1_sap_13_mot_HHH_b1_05357_000000034_0001_23_39_H_._HHH_b2_00121_0002_0000200034_0000001_0_0001 (protein)
chain: SSSSDEEELARILHEAMKAYRELVENGNHEEAEELARLLLELVRRGDPRIAEEIEELLEKLSSSS
B32: il10ra_site1_normal_mot_HHH_b2_07440_af2_000000021_0001_1_18_H_._HHH_b1_03012_af2_0001_0000200005_0000003_0 (protein)
chain: SSSSDEELEKALRLSLEAFRLALRGNEEEAEEVLEKAEELLEKLGDPRLLRVVRDLLRALSSSSS
B33: il10ra_site1_normal_mot_HHH_b2_04680_000000215_0001_1_16_H_._HHH_b2_01633_af2_0001_0000300026_0000001_0 (protein)
chain: SSSSDIRLIREAYELLRKAFEALQQGNEEEARELLEQAEKLAEEGGNHALLFAIRQLLRQISSSS
B34: il10ra_site1_normal_mot_1780dbfa062735e19749cb993a6c019b_0001_1_af2_000000050_0001_34_50_H_._HHH_b2_07550_af2_0001_0000100001_0000001_0 (protein)
chain: SSSSSREELAELLRRIAHVFAEGDNEELEELLEEAIEIAQELNNEQAVKALELILKDLREISSSS
B35: il10ra_site1_sap_21_mot_HHH_b1_05326_000000242_0001_1_20_H_._HHH_b1_00201_af2_0001_0000500048_0000001_0_0001_af2pred_dldesign_0_af2pred (protein)
chain: SSSSSSNEEVVALLKEAAELRAEGKPEEAREVLEKALELAKKLGSQILIDQAEFLLADVLASSSS
B36: il10ra_site1_sap_19_mot_HHH_b1_02809_af2_000000277_0001_40_57_H_._HHH_b2_06042_0001_0000400042_0000001_0_0001 (protein)
chain: SSSSQETYELIKEAIKEVKELWESGNPEEAEELAEEVKKRLEELGDPLTARVFENAVRLSLSSSS
B37: il10ra_site1_normal_mot_HHH_b1_05326_000000242_0001_1_20_H_._HHH_b1_02800_0001_0000700021_0000002_0 (protein)
chain: SSSSDEEELEEILEIAVELFRLMLRGNPEEAERLLEELEEIAERHNDEVAEKLVEIIKESLSSSS

These binders were tested against il10ra, Q13651 (assay: yeast display titration).

Apparent Kd, inactive:
B1 no binding seen
B2 no binding seen
B3 no binding seen
B4 no binding seen
B5 no binding seen
B6 > 106 nM
B7 no binding seen
B8 no binding seen
B9 no binding seen
B10 no binding seen
B11 no binding seen
B12 no binding seen
B13 no binding seen
B14 no binding seen
B15 no binding seen
B16 no binding seen
B17 no binding seen
B18 no binding seen
B19 no binding seen
B20 no binding seen
B21 no binding seen
B22 no binding seen
B23 no binding seen
B24 no binding seen
B25 no binding seen
B26 no binding seen
B27 no binding seen
B28 no binding seen
B29 no binding seen
B30 no binding seen
B31 no binding seen
B32 no binding seen
B33 no binding seen
B34 no binding seen
B35 no binding seen
B36 no binding seen
B37 no binding seen

Quoted at random: 2 entries already listed
Apparent Kd, inactive:
B7 no binding seen
B35 no binding seen
